Experimental data taken from article PMC11222469.
Results are given in words; binding and its absence hold for the method and conditions named. In cells and extracts the contact can be indirect. Some binding calls cover weakened binding; strength is not graded here. One block for each substance: values may come before it.

By UniProt entry, the sequences of proteins in these tests, tags left out.
UniProt Q96FF9: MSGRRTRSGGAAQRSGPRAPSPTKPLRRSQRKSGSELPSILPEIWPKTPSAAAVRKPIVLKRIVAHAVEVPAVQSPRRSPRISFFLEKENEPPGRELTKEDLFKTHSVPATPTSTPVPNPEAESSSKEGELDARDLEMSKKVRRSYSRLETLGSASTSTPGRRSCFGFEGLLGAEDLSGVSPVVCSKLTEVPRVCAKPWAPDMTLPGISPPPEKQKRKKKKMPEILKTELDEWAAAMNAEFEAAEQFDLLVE

How the values were obtained:
[1] = molecular target: SMC1A (human (endogenous in HEK293T, MV4-11, HEL, HEK293)) (UniProt Q14683); experiment: co-IP; alpha-SMC1A antibody (1-10 ug per IP) overnight at 4 C, Protein-G beads, NP-40 buffer; lysates of Cas9+ HEL cells with ROSA26- or DCAF15-targeting sgRNAs; also with cycloheximide, MG132, MLN4924, indisulam or PCI-34051; Western blot
[2] = molecular target: SMC1A (human (endogenous in HEK293T, MV4-11, HEL, HEK293)) (UniProt Q14683); experiment: co-IP; alpha-SMC1A antibody; lysates of HEK293 FLAG-HA-dTAG-DCAF15[Clone#1] cells, asynchronous or synchronized in G1/S, G2 or prometaphase, DMSO or dTAG-13 (100 nM) for final 6 h; Western blot
[3] = molecular target: FLAG-tagged DCAF15 (DDB1- and Cul4-Associated Factor 15) (human) (UniProt Q66K64); experiment: co-IP; FLAG-immunoprecipitation from HEK293T cells transiently transfected with FLAG-DCAF15, HA-SMC1A, HA-PDS5A and HA-CDCA5, before an in vitro ubiquitination assay; Western blot
FLAG-CDCA5 (human) = FLAG-CDCA5 (human) (UniProt Q96FF9); experiment: co-IP; FLAG-immunoprecipitation of FLAG-SMC1A constructs or FLAG-CDCA5 from HEK293T cells stably expressing HA-DCAF15, 5 uM MLN4924 for 6 h; also after siRNA against SMC3 or RAD21 or overexpression of RAD21; Western blot

binding [1]: binds
binding [2]: binds
Substance: CDCA5 (Sororin) (from UniProt Q96FF9 1-252)

binding [3]: binds
Substance: HA-CDCA5 (from UniProt Q96FF9 1-252)

binding (FLAG-CDCA5 (human)): binds
Substance: HA-tagged DCAF15 (from UniProt Q66K64 1-600)
